The source of these data is PMC6829319, “Combination of SAXS and Protein Painting Discloses the Three-Dimensional Organization of the Bacterial Cysteine Synthase Complex, a Potential Target for Enhancers of Antibiotic Action” (International Journal of Molecular Sciences, 2019).

This experiment addresses T1, O-acetylserine sulfhydrylase isozyme A (CysK) from E. coli (E. coli) (UniProt P0ABK5).
T1 sequence: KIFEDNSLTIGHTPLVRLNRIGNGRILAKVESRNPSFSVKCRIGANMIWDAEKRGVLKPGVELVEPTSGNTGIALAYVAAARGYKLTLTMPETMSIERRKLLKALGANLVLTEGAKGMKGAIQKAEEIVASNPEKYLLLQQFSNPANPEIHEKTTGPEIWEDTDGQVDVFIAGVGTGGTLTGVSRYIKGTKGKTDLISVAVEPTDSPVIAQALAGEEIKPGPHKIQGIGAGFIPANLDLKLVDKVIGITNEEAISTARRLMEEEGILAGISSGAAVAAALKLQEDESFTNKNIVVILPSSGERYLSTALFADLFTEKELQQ
Description: protein painting (dye masking, trypsin digestion, MALDI TOF/TOF MS); dyes RBB, CR, AO50 5 mM each in PBS, 15 min at room temperature; complexes pre-incubated 30 min on ice; 5.13 µM CysK alone, 3.33 µM CysK with 5 µM CdiA-CT, 5 µM CysK with 7.5 µM CysE; both purified.

No constants are given. Whether binding was seen depends on the method and setting. Some entries that bind do so weakly or less than the wild type.

B1: C-terminal region of Contact-dependent growth inhibition A protein (CdiA-CT) toxin (domain or fragment, UniProt Q0T963 3016-3242)
chain: VENNALSLVARGCAVAAPCRTKVAEQLLEIGAKAGMAGLAGAAVKDMADRMTSDELEHLITLQMMGNDEITTKYLSSLHDKYGSGAASNPNIGKDLTDAEKVELGGSGSGTGTPPPSENDPKQQNEKTVDKLNQKQESAIKKIDNTIKNALKDHDIIGTLKDMDGKPVPKENGGYWDHMQEMQNTLRGLRNHADTLKNVNNPEAQAAYGRATDAINKIESALKGYGI
For B1, the binding entry was “binds”.
